Record: PubChem BioAssay AID602196 (INSERM, 2012)

Screen: 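Knock-downs that protect lung cancer cells from cisplatin or sensitise them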
Cells: human A549 lung cancer cells
Knock-down reagent: siRNA pair against human genes
Time to read-out: 48 h transfection before cisplatin; time from cisplatin to read-out not stated
Treatment: cisplatin at a dose killing half of control-siRNA cells; exact dose and duration not given
Measured: 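Shift in cisplatin death relative to control siRNA, from -50 (all cells die) to +50 (no cells die); siRNAs harmful on their own scored 0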
Scale: two-siRNA summed score (-2 to +2): higher = both siRNAs protect from cisplatin killing; -2 means both sensitise; mean protection from cisplatin (shift in death) and protection from cisplatin (shift in death), siRNA C: higher = protection from cisplatin killing
Rule for the call: 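Each siRNA scores 0 if harmful alone by LDH or WST-1, otherwise +1 if it reduces and -1 if it increases cisplatin killing; a gene is active when both siRNAs agree (sum +2 or -2)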
Calls: active = both siRNAs shift cisplatin killing the same way; inactive = no consistent shift, or siRNA harmful alone
The deposit covers about 23,000 reagents; this is a random part of them. 455 of them (2%) count as active. 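Active includes both protection and sensitisation; some change values fall well beyond the stated -50 to +50 range.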 Entries without a mark were called inactive. The numbers tell different reagents against one gene apart. Not all columns of the deposit are shown. Not given: the amount of reagent.

target	reagent	two-siRNA summed score (-2 to +2)	mean protection from cisplatin (shift in death) (%)	protection from cisplatin (shift in death), siRNA C (%)
LOC442646	1	0	3.4	10.6
ELOVL5	1	0	3.1	-0.3
SLC37A4	1	-2 (active)	-18.1	-19.5
RRAGA	1	0	5.4	3.8
NUP160	1	0	10.4	3.8
RPS6KB2	1	1	11.4	22.4
LOC401883	1	0	2.7	8.4
CEP43	1	0	-9.6	-28
CEP126	1	0	-5.9	-9.4
PSG1	1	0	7.4	3.5
LOC440766	1	1	14	14.5
PDZK1	1	1	12.1	11.4
OR7A5	1	0	1.5	-0.6
VPS39	1	0	-9.5	16.2
IL17D	1	0	-7.4	7
TMEM45A	1	0	-3.6	3.5
RBKS	1	2 (active)	14.2	12.5
IVNS1ABP	1	0	7.1	6.7
SHBG	1	0	-0.3	-7.4
ARPP21	1	0	2.5	0.5
LOC374569	1	0	-1.7	-12.9
RPS11	1	0	29	22.3
GPR87	1	0	1.2	-14.4
MMP11	1	-1	-20.5	-35.7
GTF3A	1	-1	-10.7	-12.3
TNFRSF8	1	0	4.3	2.2
LOC402628	1	0	-2.2	-4.2
RBM12B	1	1	17	17.6
RGS19	1	0	-5.1	-15.1
SLC43A2	1	0	-7.5	13.6
DONSON	1	1	15.8	6.5
TP53I3	1	0	-0.5	9.5
SPSB4	1	0	3.8	1
ARHGAP28	1	1	16.4	19

Entries listed above marked active (2):
target	reagent	two-siRNA summed score (-2 to +2)	mean protection from cisplatin (shift in death) (%)	protection from cisplatin (shift in death), siRNA C (%)
SLC37A4	1	-2 (active)	-18.1	-19.5
RBKS	1	2 (active)	14.2	12.5

The listing continues.
target	reagent	two-siRNA summed score (-2 to +2)	mean protection from cisplatin (shift in death) (%)	protection from cisplatin (shift in death), siRNA C (%)
ZNF655	1	0	9.5	9.9
DUOX1	1	0	0.3	7.1
CRYAA	1	0	9.6	15.8
SSR2	1	0	10.9	-1.5
LOC441538	1	0	15.1	15
COPS4	1	0	-0.3	1.8
LOC440537	1	0	-0.4	1
SARS2	1	1	11.1	1.8
LOC401525	1	0	6.3	14
BAZ2A	1	-1	-12.2	-2.7
LRRC37A2	1	1	27.3	31.9
STOML2	1	-1	-16.2	-33.9
LIMA1	1	0	-2.7	-21.9
HUS1	1	-1	-6.5	0.9
SMC6	1	0	-3.1	-12.3
TAF10	1	0	12.3	17.3
EPHX4	1	0	17.4	14.2
DSC1	1	0	-1.2	-1
CDC7	1	-2 (active)	-22.9	-21.7
OR5D13	1	0	7.3	13.8
JMY	1	0	1.9	9.1
JPH2	1	0	5.8	4.2
EIF6	1	0	-3.3	1.4
RNF17	1	0	-0.9	-5.1
RNF17	2	0	13.7	6.2
LOC441093	1	0	-4	-0.7
ZBED5	1	0	0.2	2.9
GPRIN2	1	1	2.4	-11.1
PHGDH	1	0	-3.8	5.2
SAA4	1	0	8.6	13.1
LOC400506	1	0	-2.1	2.8
NKD1	1	0	-2.6	-2.8
RBM27	1	0	7.9	4
POLE2	1	0	2.5	20.7
ABHD8	1	0	-1.4	-2.5
GABPB1	1	1	7.3	13.9
RBBP9	1	0	6.1	8
CDKN2B	1	0	10.2	33.1
WDCP	1	0	7.1	13.8
